Measured values as given in US20260132219A1.
Results are given in words; binding and its absence hold for the method and conditions named. Some entries that bind do so weakly or less than the wild type.

Chains of the proteins cited; added tags and fusions are not shown. Lines headed by an entry give the natural chain unless they say otherwise; changes in a name come on top. A line that says so, or that is headed by a name, gives the form on record, which may keep a tag or linker.
UniProt P21860: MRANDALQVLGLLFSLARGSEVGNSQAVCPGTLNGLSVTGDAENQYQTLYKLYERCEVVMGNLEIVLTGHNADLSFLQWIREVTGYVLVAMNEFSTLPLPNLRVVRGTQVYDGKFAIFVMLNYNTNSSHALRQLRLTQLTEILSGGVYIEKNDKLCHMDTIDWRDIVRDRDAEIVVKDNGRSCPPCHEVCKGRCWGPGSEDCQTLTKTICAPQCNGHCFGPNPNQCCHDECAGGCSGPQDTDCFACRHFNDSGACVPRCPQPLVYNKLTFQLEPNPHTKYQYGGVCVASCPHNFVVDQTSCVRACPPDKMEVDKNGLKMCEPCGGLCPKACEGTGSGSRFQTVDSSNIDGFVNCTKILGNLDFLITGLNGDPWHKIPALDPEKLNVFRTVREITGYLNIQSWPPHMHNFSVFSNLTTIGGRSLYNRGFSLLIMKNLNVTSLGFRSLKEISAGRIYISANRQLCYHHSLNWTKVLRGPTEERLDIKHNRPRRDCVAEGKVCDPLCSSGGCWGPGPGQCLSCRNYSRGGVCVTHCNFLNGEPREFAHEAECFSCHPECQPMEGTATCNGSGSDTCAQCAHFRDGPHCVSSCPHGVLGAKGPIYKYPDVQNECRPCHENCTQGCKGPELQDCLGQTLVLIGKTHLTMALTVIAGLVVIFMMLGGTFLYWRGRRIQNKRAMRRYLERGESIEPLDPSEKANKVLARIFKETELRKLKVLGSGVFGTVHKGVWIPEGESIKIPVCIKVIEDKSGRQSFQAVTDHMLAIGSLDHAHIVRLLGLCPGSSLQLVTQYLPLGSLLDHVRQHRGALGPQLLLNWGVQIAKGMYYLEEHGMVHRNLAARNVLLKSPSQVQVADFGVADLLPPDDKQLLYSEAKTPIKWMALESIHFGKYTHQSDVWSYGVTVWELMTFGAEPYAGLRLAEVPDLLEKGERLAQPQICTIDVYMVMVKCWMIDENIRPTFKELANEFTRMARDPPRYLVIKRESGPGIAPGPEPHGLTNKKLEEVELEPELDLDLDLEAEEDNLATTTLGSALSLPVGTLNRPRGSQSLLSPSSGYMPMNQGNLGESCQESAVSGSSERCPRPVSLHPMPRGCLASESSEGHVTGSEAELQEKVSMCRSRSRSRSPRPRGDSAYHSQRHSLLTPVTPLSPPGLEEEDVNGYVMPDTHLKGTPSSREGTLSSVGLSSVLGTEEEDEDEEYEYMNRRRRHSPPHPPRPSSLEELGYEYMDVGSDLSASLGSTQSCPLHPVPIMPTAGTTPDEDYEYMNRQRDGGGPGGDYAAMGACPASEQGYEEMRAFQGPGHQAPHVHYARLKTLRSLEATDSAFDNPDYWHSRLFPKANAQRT
cynomolgus macaque HER3 (Sino Biological Inc.) (G7PIG5, form named): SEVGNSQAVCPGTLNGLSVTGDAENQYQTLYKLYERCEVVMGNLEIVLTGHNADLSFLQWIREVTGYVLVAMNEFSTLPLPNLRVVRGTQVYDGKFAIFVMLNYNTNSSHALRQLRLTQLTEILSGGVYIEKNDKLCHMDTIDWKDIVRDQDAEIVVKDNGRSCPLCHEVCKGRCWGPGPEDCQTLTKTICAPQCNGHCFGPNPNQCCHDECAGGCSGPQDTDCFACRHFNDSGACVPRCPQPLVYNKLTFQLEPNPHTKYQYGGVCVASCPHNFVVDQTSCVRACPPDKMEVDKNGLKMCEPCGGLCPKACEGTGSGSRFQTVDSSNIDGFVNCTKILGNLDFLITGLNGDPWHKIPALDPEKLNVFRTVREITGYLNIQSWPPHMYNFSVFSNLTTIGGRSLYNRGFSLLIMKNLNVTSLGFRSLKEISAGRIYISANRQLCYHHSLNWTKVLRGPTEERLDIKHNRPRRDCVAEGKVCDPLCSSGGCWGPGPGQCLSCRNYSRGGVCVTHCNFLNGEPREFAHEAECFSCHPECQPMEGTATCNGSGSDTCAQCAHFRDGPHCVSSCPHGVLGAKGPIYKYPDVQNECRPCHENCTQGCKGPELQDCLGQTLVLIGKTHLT

Experiments:
[1] = target: His-tagged human HER3 (human) (UniProt P21860); test: BLI (Octet QK384), antibody on AHC tips
[2] = target: cynomolgus macaque HER3 (Sino Biological Inc.) (cynomolgus macaque) (UniProt G7PIG5); test: ELISA, target polypeptide coated

binding [1]	binding [2]	Binder
binds	–	anti-HER3 clone 10D1_c85o2 IgG1 (antibody, V domains shown) VH: DVQLQEWGAGLLKPSETLSLTCAVTGYSITSGYSWHWIRQFPGKGLEWIGSIRYSGGTNYNPSLKSRITISRDTSKNQFSLKLGSVTAADTAVYFCARGTTAPRYPFDYWGQGTLVTVSS VL: DIVMTQSPSSLSASVGDRVTITCKASQIVGSNVAWYQQKPGKSPKPLIYSARYQYSGVPFRFSGSGSGTDFTLTISSLQPEDVATYYCQQYSSHPLTFGPGTKVEIKR
–	binds	10D1F.FcA (anti-HER3 clone 10D1_c89 IgG1) (antibody, V domains shown) VH: QVQLQESGPGLVKPSQTLSLTCTVSGYSITSGYSWHWIRQHPGKGLEWIGSIRYSGGTDYNPSLKSLVTISADTSKNQFSLKLSSVTAADTAVYYCARMTTAPWYPFDYWGQGTTVTVSS VL: DIQMTQSPSSVSASVGDRVTITCKASQIVGSNVAWYQQKPGKAPEPLIYSASYLYSGVPSRFSGSGSGTDFTLTISSLQPEDFATYYCQQYSSHPLTFGQGTKLEIKR
